## Results of single-concentration screens

Protein sequences, listed by entry. Tags and fused reporters are not part of them. Residues count along the entry.
UniProt I6X8D2, whole entry: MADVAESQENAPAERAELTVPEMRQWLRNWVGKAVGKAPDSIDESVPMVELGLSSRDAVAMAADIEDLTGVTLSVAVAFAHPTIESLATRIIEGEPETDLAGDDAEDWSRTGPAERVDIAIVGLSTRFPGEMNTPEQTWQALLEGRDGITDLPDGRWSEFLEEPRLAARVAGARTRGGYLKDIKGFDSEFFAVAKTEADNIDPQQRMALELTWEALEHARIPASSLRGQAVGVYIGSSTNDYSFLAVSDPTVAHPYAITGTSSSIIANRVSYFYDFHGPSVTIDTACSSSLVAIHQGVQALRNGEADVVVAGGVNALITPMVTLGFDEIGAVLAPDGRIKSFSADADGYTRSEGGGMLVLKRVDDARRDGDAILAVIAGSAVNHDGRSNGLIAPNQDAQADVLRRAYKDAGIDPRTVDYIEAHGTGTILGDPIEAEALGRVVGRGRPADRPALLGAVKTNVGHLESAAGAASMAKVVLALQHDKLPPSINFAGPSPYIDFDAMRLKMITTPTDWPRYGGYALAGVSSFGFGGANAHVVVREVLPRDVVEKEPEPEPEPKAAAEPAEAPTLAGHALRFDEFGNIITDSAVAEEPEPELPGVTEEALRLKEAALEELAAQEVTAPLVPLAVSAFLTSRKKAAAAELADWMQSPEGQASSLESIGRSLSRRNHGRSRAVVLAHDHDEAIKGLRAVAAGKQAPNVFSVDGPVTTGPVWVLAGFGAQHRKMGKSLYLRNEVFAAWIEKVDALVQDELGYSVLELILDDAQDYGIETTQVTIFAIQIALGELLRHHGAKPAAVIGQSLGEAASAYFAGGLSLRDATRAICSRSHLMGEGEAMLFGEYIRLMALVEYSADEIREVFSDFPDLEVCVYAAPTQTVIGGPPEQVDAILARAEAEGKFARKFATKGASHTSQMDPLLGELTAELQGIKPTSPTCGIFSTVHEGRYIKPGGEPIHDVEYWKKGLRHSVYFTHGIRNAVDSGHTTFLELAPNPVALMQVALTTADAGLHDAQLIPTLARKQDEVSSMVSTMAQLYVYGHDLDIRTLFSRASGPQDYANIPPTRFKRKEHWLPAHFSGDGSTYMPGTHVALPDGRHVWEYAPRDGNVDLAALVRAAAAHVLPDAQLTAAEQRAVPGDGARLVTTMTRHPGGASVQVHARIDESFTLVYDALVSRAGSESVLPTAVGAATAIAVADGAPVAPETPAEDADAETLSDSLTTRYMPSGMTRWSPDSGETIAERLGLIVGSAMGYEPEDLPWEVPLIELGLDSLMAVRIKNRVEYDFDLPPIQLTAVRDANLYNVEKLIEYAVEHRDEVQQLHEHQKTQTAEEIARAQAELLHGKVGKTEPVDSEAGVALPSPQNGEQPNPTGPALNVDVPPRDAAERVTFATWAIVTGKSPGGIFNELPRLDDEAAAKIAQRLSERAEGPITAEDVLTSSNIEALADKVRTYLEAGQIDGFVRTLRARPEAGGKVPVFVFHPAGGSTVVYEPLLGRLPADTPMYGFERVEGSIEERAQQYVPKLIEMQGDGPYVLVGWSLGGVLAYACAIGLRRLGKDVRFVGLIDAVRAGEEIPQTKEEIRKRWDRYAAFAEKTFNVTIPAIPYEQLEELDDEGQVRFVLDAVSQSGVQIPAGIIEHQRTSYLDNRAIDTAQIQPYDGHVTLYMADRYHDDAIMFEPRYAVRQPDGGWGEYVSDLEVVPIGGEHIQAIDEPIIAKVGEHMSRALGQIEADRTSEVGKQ
UniProt Q4DA54, 1-478: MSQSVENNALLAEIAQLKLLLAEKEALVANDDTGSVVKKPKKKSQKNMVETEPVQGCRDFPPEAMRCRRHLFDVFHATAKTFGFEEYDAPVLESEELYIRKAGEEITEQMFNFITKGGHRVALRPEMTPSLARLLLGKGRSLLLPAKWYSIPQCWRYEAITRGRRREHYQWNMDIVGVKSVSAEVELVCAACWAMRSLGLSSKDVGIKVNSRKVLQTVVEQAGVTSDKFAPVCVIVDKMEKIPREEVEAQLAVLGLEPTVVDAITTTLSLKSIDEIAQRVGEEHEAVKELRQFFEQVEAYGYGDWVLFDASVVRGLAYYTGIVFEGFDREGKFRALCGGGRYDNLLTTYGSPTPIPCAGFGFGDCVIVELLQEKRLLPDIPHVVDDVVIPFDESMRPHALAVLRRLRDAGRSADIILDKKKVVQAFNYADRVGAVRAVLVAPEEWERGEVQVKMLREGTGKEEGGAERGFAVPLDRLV
UniProt P9WPC5, whole entry: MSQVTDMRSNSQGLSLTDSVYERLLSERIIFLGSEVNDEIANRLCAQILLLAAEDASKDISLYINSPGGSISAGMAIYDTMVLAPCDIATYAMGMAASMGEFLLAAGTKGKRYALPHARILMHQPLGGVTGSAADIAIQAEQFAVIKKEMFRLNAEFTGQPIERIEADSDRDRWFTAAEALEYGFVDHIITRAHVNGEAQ
UniProt P9WPC3, whole entry partner: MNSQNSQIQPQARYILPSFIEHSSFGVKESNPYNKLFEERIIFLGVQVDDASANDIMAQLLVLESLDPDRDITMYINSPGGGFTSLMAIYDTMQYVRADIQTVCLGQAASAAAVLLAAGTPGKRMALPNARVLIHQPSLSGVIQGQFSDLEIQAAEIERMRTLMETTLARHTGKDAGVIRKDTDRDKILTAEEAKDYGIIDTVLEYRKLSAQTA
UniProt A4I591, 1-473: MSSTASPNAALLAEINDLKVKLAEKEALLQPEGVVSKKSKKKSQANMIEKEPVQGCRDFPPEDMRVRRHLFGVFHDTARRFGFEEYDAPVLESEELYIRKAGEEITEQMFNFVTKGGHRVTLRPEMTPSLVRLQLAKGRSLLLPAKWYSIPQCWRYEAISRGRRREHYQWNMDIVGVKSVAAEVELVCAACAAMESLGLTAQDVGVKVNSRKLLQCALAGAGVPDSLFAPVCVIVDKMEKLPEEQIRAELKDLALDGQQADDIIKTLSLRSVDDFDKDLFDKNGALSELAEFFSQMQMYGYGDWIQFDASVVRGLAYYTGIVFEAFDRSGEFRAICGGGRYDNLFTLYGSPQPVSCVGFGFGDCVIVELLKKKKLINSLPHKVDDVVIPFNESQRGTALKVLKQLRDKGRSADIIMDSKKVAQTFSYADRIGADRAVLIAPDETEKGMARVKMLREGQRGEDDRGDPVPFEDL

Pks13 thioesterase: 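Polyketide synthase Pks13, Mycobacterium tuberculosis (UniProt I6X8D2). Enzyme assay of the thioesterase domain of polyketide synthase 13; the read-out is not stated. Tested at 30 µM. Higher reads as stronger inhibition (inferred from which compounds were picked for retests). Of about 67,000 compounds tested this way, about 300 (0.46%) reached 50% or more in at least one test.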
TcHisRS: 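Enzyme assay of histidyl-tRNA synthetase; the read-out is not stated. Target: Histidine-tRNA ligase, Trypanosoma cruzi CL Brener (UniProt Q4DA54). Concentration: 30 µM. Direction is inferred from retests: higher values go with stronger inhibition. Size under these conditions: about 69,000 compounds, about 31 of them at 50% or above in at least one test.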
ClpP1P2: 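ClpP1P2, Mycobacterium tuberculosis (UniProt P9WPC5 and UniProt P9WPC3). Protease assay of ClpP1P2, read by the AMC dye that it sets free. Tested at 50 µM. Higher reads as stronger inhibition, judged from the few compounds that gave an IC50. Most other retested compounds had strongly negative values. About 69,000 compounds were tested under these conditions; 0.015% (about 10) showed 50% or more at least once.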
Leishmania in macrophages: 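Cell assay of Leishmania donovani living inside macrophages; the read-out is not stated. Compounds at 30 µM. Direction is inferred from retests: higher values go with stronger inhibition. About 69,000 compounds were tested under these conditions; 1.5% (about 1,000) showed 50% or more at least once.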
LiHisRS: 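Histidine-tRNA ligase, Leishmania infantum (UniProt A4I591). Enzyme assay of histidyl-tRNA synthetase; the read-out is not stated. Tested at 30 µM. Higher reads as stronger inhibition (inferred: compounds with an IC50 in retests scored well above the rest). The assay is labelled LdHisRS but filed under L. infantum. About 69,000 compounds were tested under these conditions; 0.6% (about 410) showed 50% or more at least once.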

Values are the deposited “Percent Effect”, in %.
The record does not define 0% and 100%; most values in the screen are far below 50% and negative numbers occur (in some assays of this library far below -100).
This is an unselected part of the compounds tested.
Two or more numbers in one place are separate tests of the same structure; such repeats can differ widely.
A dash means the value is not listed here; it may have been measured.

Compound	Pks13 thioesterase	TcHisRS	ClpP1P2	Leishmania in macrophages	LiHisRS
[H][C@]12CC[C@@]3(N=C(C)N(CC(C)C)C3=O)[C@@]1([H])CN(S(=O)(=O)CC)C2	-	-	-	28.23%	-
Cc1nn(C)c(C)c1S(=O)(=O)NCC(C)(O)c1ccc2c(c1)OCO2 (stereo not shown)	-14.02%	-2.062%	-3.835%	8.282% & 19.93%	8.696%
COc1ncccc1C(=O)N1CCCC(c2cc(C)[nH]n2)C1 (stereo not shown)	2.981%	3.759%	1.89%	-14.49%	-4.762%
Cc1cc(Cn2cc(C#N)c(=O)c3ccccc32)on1	-26.5%	9.804%	1.664%	7.777%	6.667%
O=c1cc(C2CCNCC2)nc(Cc2cccc(Cl)c2)[nH]1	0.9108%	5.6%	-6.512%	23.22%	0.885%
O=C(c1cc(C2CC2)n[nH]1)N1C[C@H]2CC[C@](O)(c3ccccc3F)[C@H]2C1	-4.249%	5.65%	-15.36%	-	8.392%
CN1CCC(Cc2cccc(-c3cc(F)ccc3C(=O)O)n2)CC1	7.108%	5.556%	-10.07%	-0.5188% & -0.3251%	8.247%
Cc1noc(CCCC(=O)N2CCCCC2c2nccs2)n1 (stereo not shown)	10.44%	2.597%	-2.859%	-31.59%	-5.714%
NC(=O)COCCNC(=O)Nc1sc2ccccc2c1Cl	12.22%	4.762%	1.649%	-29.88%	8.219%
O=CO.c1nc(CN2CCCC(Cc3ccc(NC4CCCC4)nn3)C2)c[nH]1 (stereo not shown)	-	-	-	34.12%	-
O=C(c1ccccc1-c1nnn[nH]1)N1CCOC(C(F)(F)F)C1 (stereo not shown)	-40%	2.632%	-0.1348%	9.149%	14.17%
CCCOc1ccc(C2SCC(=O)Nc3c2c(=O)[nH]n3C(C)C)cc1 (stereo not shown)	-13.97%	6.509%	-3.509%	6.752%	8.276%
COC(=O)c1cccc(-c2c[nH]c(C)n2)c1	-10.07%	4.819%	-15.3%	5.166%	8%
Cc1nc(CN2CCN(C(=O)c3ccnc(N(C)C)c3)CC2)cs1	-16.16%	1.425%	-12.27%	17.74%	17.09%
COCC[C@]1(O)CCN(S(=O)(=O)c2ccc(C)cc2OC)C[C@H]1C	0.1994%	1.961%	-29.53%	0.85%	6.4%
CC(C)NC(=O)N1CCC2(CC(=O)N(c3cccc(F)c3)C2)C1 (stereo not shown)	-16.53%	5.785%	-0.7809%	18.05%	9.091%
CCc1nc(CN2CCN(C(=O)CCc3ccccc3)CC2)cs1	-18.9%	3.383%	7.825%	1.742%	24.32%
CN1C(=O)c2ccc(NC(=O)CSc3ccc4c(c3)CCC4)cc2C1=O	-8.631%	1.724%	-1.214%	5.912%	-0.8929%
Cc1ccc([C@@H]2CN(S(=O)(=O)c3cc(C)ccc3F)C[C@H]2N(C)C)cc1	-40.01%	-1.163%	-22.83%	6.97%	14.75%
O=C(C1CCCC1)N1CCCC2(CCN(c3cnccn3)CC2)C1	-5.115%	11.65%	-10.74%	-	21.36%
Cc1ccc(CN2CCC3(CC2)CCN(C(=O)c2cccn2C)C3)cc1	-29.1%	5.825%	0.5272%	-	13.46%
Cc1cccc(CN(Cc2ccccc2)Cc2nccs2)n1	-21%	1.205%	-18.37%	-16.02%	8%
CC(C)(C)N1CC(c2ncc(-c3ccc4c(c3)OCCO4)[nH]2)CC1=O (stereo not shown)	-15.22%	1.031%	-4.396%	8.251%	8.571%
CCc1cc(C(=O)N2CCCC2c2nc(C)c(F)c(O)n2)on1 (stereo not shown)	-16.11%	-1.075%	11.8%	10.76%	11.43%
CCO[C@H]1CO[C@@]2(CCCN(S(=O)(=O)c3cccnc3)C2)C1	-5.665%	0.8403%	4.725%	-	0.9174%
Cc1cc(F)ccc1NS(=O)(=O)c1cc2c(c(C(=O)O)c1)OCCO2	-16.55%	0.578%	-21.63%	5.873%	6.25%
COc1cccc(CC2CN(C(=O)c3ccnn3C)CCO2)c1 (stereo not shown)	-34.21%	0%	-8.504%	29.83%	5.263%
Cc1ccc(-n2ncc(C(=O)NCC3CCS(=O)(=O)C3)c2C)cc1 (stereo not shown)	8.47%	1.729%	-31.75%	29.03%	8.929%
CCS(=O)(=O)N(C)C1CCN(Cn2ccc(-c3ccc(F)cc3)n2)CC1	-	7.843%	0.03211%	22.91%	15%
Cn1ncc2c(=O)[nH]c(CN(Cc3cccc(F)c3)C3CC3)nc21	-10.07%	0.7634%	5.641%	26.8%	19.18%
Cc1ccc(CN2CC3(CCN(C(=O)c4cccnc4)C3)C2)o1.O=C(O)C(F)(F)F.O=C(O)C(F)(F)F	-	-	-	13.9%	-
[H][C@@]12CN(Cc3cccc(OC)c3)CC[C@]1([H])N(C(C)=O)C[C@H]2c1ccsc1	-	-	-	-13.04% & -9.745%	-
COC1CCN(CCNC(=O)NC(C)c2ccc(F)c(F)c2)CC1 (stereo not shown)	4.659%	-5.946%	8.385%	9.353%	35.62%
Cc1cc(O)cc(=O)n1CCCC(=O)Nc1n[nH]c2ccccc12	1.482%	5%	-20.81%	-8.108%	17.39%
c1cc(CN2C[C@H](OCC3CCOCC3)[C@H]3COC[C@H]32)co1	-54.06%	1.105%	-12.08%	-	-4.505%
Cc1cc(C)c(CNC(=O)N2CCCC2C(N)=O)c(=O)[nH]1 (stereo not shown)	-3.184%	2.632%	6.796%	1.781%	18.92%
CC(C)C(NC(=O)c1ccco1)C(=O)N1CCC2(CC1)OCCO2 (stereo not shown)	-17.02%	6.863%	7.626%	-12.49%	10.92%
Cc1cc(NC(=O)CN(C)C2CCCN(c3cccnn3)C2)n(C)n1 (stereo not shown)	-2.556%	3.788%	1.165%	-0.9392%	16.67%
Cc1cc(C(=O)N2CCc3nnc(N(C)C)cc3C2)c(C)n1C1CC1	-2.386%	10.9%	6.591%	17.3%	10.81%

2 of the entries, repeated:

{"compound": "Cc1ccc([C@@H]2CN(S(=O)(=O)c3cc(C)ccc3F)C[C@H]2N(C)C)cc1", "Pks13 thioesterase": -40.01, "TcHisRS": -1.163, "ClpP1P2": -22.83, "Leishmania in macrophages": 6.97, "LiHisRS": 14.75}
{"compound": "CCO[C@H]1CO[C@@]2(CCCN(S(=O)(=O)c3cccnc3)C2)C1", "Pks13 thioesterase": -5.665, "TcHisRS": 0.8403, "ClpP1P2": 4.725, "LiHisRS": 0.9174}

From ChEMBL document CHEMBL3988442, “University of Dundee, Small-Polar-MMV Screening Library” (2021).